The other results are listed elsewhere or left out.

The target in the experiment is T1, OsSMF1 (Oryza sativa, UniProt Q6ZLB0 1-436).
T1 sequence: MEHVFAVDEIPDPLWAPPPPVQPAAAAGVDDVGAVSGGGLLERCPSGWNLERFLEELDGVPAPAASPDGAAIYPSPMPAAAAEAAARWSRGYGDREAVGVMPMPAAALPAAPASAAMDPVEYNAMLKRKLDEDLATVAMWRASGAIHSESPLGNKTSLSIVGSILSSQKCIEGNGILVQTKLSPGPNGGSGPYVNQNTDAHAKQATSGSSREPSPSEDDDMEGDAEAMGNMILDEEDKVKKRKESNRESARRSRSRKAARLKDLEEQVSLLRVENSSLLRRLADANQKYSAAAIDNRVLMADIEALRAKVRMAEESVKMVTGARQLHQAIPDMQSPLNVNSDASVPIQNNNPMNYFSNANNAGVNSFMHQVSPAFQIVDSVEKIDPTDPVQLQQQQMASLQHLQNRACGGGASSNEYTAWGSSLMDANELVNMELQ
Nature of the experiment: protein-binding microarray (RPBM); PBS, 2% BSA, 51.3 ng/ul salmon testes DNA, 50 uM zinc acetate, 200 nM TF, 25 C, 1 h; high values mean tight binding. Conditions: protein: recombinant; tags: N-terminal polyhistidine and DsRed monomer fusion (pET32a); chain copies: 2; label: CyDye5-dUTP incorporated in the synthesized complementary strand; 3' TTTTT single-stranded linker to array surface; dsDNA, one strand shown. The essentials:
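Transcription factors were each fused at the N-terminus to a polyhistidine tag plus DsRed and expressed in E. coli BL21-CodonPlus before Ni–NTA purification. Binding to a double-stranded custom Agilent array was carried out with 200 nM protein at 25 °C for 1 h in PBS, 2% BSA, salmon testes DNA and 50 µM zinc acetate. The binding signal is per-feature fluorescence intensity, in arbitrary units, on an Axon 4000B scanner.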
Regarding “TCAATTGCCGTGCCACGCGGTGCCGTGCCTCTGCCTCCCTCGGAGTCACCTAGTGCAG”, the binding signal was 5520 fluorescence intensity (a.u.).
Turning to “AACAGTTGAAATAAGGTAAACTCGGTGGCATATGATAGATCGGAGTCACCTAGTGCAG”, the binding signal was 3360 fluorescence intensity (a.u.).
“TATAATAAAGTAACATAAAAGTTTGGATGTATGAAAATCTCGGAGTCACCTAGTGCAG”: the binding signal is 38800 fluorescence intensity (a.u.).
For the sequence “TCATACTAGAATATGTCACATCCAGTCATAGATTCGTTTTCGGAGTCACCTAGTGCAG”, the binding signal was 5350 fluorescence intensity (a.u.).
Turning to “CACTAAAGTCAAACCCCATGTGTAACTGCTCACACTCTTTCGGAGTCACCTAGTGCAG”, the binding signal is 3400 fluorescence intensity (a.u.).
The result for “ACCTCTGATTGCGTCATTCCATTTCCATGGATTGCTCGATCGGAGTCACCTAGTGCAG” reads 7040 fluorescence intensity (a.u.); that for “AACCTACTATTAGCCCGTCCAGGTCATCACAATCTGAGCTCGGAGTCACCTAGTGCAG”, 8060 fluorescence intensity (a.u.).
For the sequence “TTCCAATCACATTCTTAGTCAACACCATCCATGCTGTCGACGGAGTCACCTAGTGCAG”, the binding signal was 3940 fluorescence intensity (a.u.).
The result for “TGCGCGTGGCTGAGGTAAACCATGACACATTAGTGCTGGACGGAGTCACCTAGTGCAG” reads 4570 fluorescence intensity (a.u.); that for “ATCGGACCACACGTGCTGCCTCCTCCGCGACACGCAACGTCGGAGTCACCTAGTGCAG”, 3710 fluorescence intensity (a.u.); that for “TTGATACAATAAGTAGAAGTGACGCGACAAATAATTATTTCGGAGTCACCTAGTGCAG”, 3230 fluorescence intensity (a.u.).
On to “ACGCTCAATTATTCCGTGGCCACTAAGCTAAGCAACTCTGCGGAGTCACCTAGTGCAG”, for which the binding signal is 8520 fluorescence intensity (a.u.).
As to “AAGTTTGGGCCGCAGGGCCCACAATAGAGGATGACACGGTCGGAGTCACCTAGTGCAG”, the binding signal was 3620 fluorescence intensity (a.u.).
With “CGCGAGTGTCCGATGACATCATATGTACGATGGCAAGCATCGGAGTCACCTAGTGCAG”, the binding signal was 3710 fluorescence intensity (a.u.).
For “CATTCTCGGGCTGTCTGAGCTGCCACCTAAGTTAAGGTAACGGAGTCACCTAGTGCAG”, the binding signal is 3260 fluorescence intensity (a.u.).
Next, “GCCGACTCTTACTCCTCCGCCCACTCACCACGCGCGCTGCCGGAGTCACCTAGTGCAG”: 3650 fluorescence intensity (a.u.); “GAGGTAGGATGGGGTGAGCCGACGGAACTGCTGACGGAATCGGAGTCACCTAGTGCAG”: 3250 fluorescence intensity (a.u.).
The result for “GCGCCCACCCAATAGGACCACGCCACGTCACCGCCTACGGCGGAGTCACCTAGTGCAG” reads 15900 fluorescence intensity (a.u.); that for “ATTCACAATGTAATAGGACGGACACGTCATGACAGAAGAACGGAGTCACCTAGTGCAG”, 5700 fluorescence intensity (a.u.); that for “GCATACGATGGAGATATTGTGTACGTCTGGGATGTGGAGTCGGAGTCACCTAGTGCAG”, 5520 fluorescence intensity (a.u.).
“CATCAAGGAGGGATGGTGACACAATCGTTTATACTGGTTCCGGAGTCACCTAGTGCAG”: the binding signal is 4440 fluorescence intensity (a.u.).
For the sequence “ACGGTCACGGTCCGGCCGCTCTACACGTACGTAGTACGTGCGGAGTCACCTAGTGCAG”, the binding signal was 25100 fluorescence intensity (a.u.).
With “CTAGCGGCTTCCTCTCCATGCGCCAGGGCCTCGACACCGCCGGAGTCACCTAGTGCAG”, the binding signal was 3190 fluorescence intensity (a.u.).
Turning to “GGAGATTGGACCCCGCCGCATCTCCACGTCTCCTTCCGCCCGGAGTCACCTAGTGCAG”, the binding signal is 5000 fluorescence intensity (a.u.).
The result for “ACAGACTCCGTCTCGGAGACTCTCCCGCTGACTGACACCTCGGAGTCACCTAGTGCAG” reads 3320 fluorescence intensity (a.u.); that for “CGGACTCCCATATCAAAATTTATTAAGACTCTGCATGCCTCGGAGTCACCTAGTGCAG”, 13800 fluorescence intensity (a.u.); that for “ATGATGCTGGATTGCTGGATACTGCATCAACATCATTAAGCGGAGTCACCTAGTGCAG”, 44500 fluorescence intensity (a.u.).
As for “ACCTAATCCCACAGCTGGTCGCGACGTGGTCTGAAAACGTCGGAGTCACCTAGTGCAG”, the binding signal is 3540 fluorescence intensity (a.u.).
Regarding “TGGTGGTGGTGGGGAGCGGCCTTTATCCGTGGCGTTGGCACGGAGTCACCTAGTGCAG”, the binding signal was 3350 fluorescence intensity (a.u.).
Next, “AGTATGCTTTTCTTAACGATGACGTCAGCATACACCTCGGCGGAGTCACCTAGTGCAG”: 45200 fluorescence intensity (a.u.); “CACATGTCAGTGACTCAATGTCACCGAGAATATCACGGGGCGGAGTCACCTAGTGCAG”: 4650 fluorescence intensity (a.u.).
Regarding “ATGCATGACTCAGCTCGCATCCGCATCGTGCATTCGTGCCCGGAGTCACCTAGTGCAG”, the binding signal was 10200 fluorescence intensity (a.u.).
With “AAATTTTAATACGTGTAGCATTGCTCCCGGTAATGTATTTCGGAGTCACCTAGTGCAG”, the binding signal was 3700 fluorescence intensity (a.u.).
Consider “CGTTTGCTCTTGTTCCGTTAATTCTTACTAACCTTAACTGCGGAGTCACCTAGTGCAG”, for which the binding signal was 3330 fluorescence intensity (a.u.).
As to “ATGCACATTTGCCACCTAGGCCTACATGTCAGTCTCAGCCCGGAGTCACCTAGTGCAG”, the binding signal is 6980 fluorescence intensity (a.u.).
Regarding “GTGTGTTCACAACGCAAAGACGATGACTGTAGTAGTATCTCGGAGTCACCTAGTGCAG”, the binding signal was 4250 fluorescence intensity (a.u.).
With “ATATATATGACCAACCATTTCAGCTAACGAGTAGCTATCCCGGAGTCACCTAGTGCAG”, the binding signal is 3760 fluorescence intensity (a.u.).
“ATTAACCTCAGGAGTTAGGAGTACAAAATAGTATACCTTTCGGAGTCACCTAGTGCAG”: the binding signal was 28000 fluorescence intensity (a.u.).
With “AGAGGAAGAGGAAGAAGAGGTCATTCCGCCACGTCCCGGACGGAGTCACCTAGTGCAG”, the binding signal is 7090 fluorescence intensity (a.u.).
In the case of “ACTCTACCACCATCATTAGCCAGGCTATATCTCAAGCACACGGAGTCACCTAGTGCAG”, the binding signal was 14100 fluorescence intensity (a.u.).
The result for “AGCAGCAAAGCTCACGTTGCTACACGAGTCACGTCTCGCTCGGAGTCACCTAGTGCAG” reads 3270 fluorescence intensity (a.u.).
Next, “TGGTCTGGGTGATATGGCCTATTCTGATTGGGTGTGGTTGCGGAGTCACCTAGTGCAG”: 3400 fluorescence intensity (a.u.).

The values are drawn from PMC7819943, “Rice protein-binding microarrays: a tool to detect cis-acting elements near promoter regions in rice”.
